Test results as given in US20250340607A1 (UNIVERSITY OF CHICAGO, published 2025).
No constants are given. Whether binding was seen depends on the method and setting. Some entries that bind do so weakly or less than the wild type.

Molecular target: T1, murine Flt3 (R&D 768-F3-050) (murine, UniProt Q00342 28-544)
T1 construct: Bought recombinant protein coated on the ELISA plate; also called receptor for Flt3L; recombinant CD135
T1 sequence (looked up): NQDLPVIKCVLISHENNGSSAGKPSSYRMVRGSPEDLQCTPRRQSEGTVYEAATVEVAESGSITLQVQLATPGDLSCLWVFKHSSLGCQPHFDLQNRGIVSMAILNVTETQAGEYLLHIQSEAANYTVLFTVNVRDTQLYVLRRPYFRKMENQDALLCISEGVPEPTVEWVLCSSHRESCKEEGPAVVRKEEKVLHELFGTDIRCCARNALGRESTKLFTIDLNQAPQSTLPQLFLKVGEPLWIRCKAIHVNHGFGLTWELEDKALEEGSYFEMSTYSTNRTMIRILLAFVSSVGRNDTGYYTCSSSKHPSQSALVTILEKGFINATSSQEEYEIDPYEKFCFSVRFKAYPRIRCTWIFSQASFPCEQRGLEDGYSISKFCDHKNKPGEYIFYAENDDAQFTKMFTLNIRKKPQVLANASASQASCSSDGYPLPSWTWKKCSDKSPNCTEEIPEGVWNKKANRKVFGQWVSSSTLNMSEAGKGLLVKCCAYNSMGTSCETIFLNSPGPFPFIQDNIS
Test: CD135 binding ELISA: plate coated with 10 nM recombinant CD135

B1: wild type murine Flt3L (ligand)
chain: MTPDCYFSHSPISSNFKVKFRELTDHLLKDYPVTVAVNLQDEKHCKALWSLFLAQRWIEQLKTVAGSKMQTLLEDVNTEIHFVTSCTFQPLPECLRFVQTNISHLLKDTCTQLLALKPCIGKACQNFSRCLEVQCQPDSSTLLPPRSPIALEATELPEPRPRQ
notes: Made in HEK293F cells and glycosylated (multiple bands around 30 kDa); also called WT Flt3L; WT; not shown: it was purified over a HisTrap HP column, so it probably carries a His tag
- binding: binds
